PubChem BioAssay AID1159584, Peter MacCallum Cancer Centre | 2016
Purpose: 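Genes that CDH1-null MCF10A cells selectively depend on to survive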 (primary screen). Cell system: human MCF10A breast epithelial cells, parental and CDH1-null. Reagent: siRNA against human genes. Detection: 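ATP luminescence (CellTiter-Glo) viability per line relative to mean mock wells over all plates, and the ratio of CDH1-null to parental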. Direction: CDH1-null / parental viability ratio: higher = CDH1-null cells survive relatively better than parental.
Here is one part, drawn at random, of about 18,000 reagents tested. Not all columns of the deposit are shown. The record does not give: the amount of reagent, the time to read-out.

gene | CDH1-null / parental viability ratio
MED31 | 1.09
IQGAP1 | 1.08
NFIL3 | 0.93
RUNDC3B | 1.52
GPHA2 | 1.23
SHANK2 | 2.31
ELP5 | 1.21
GMPR | 1.1
SLC9A4 | 1.22
MAPK7 | 0.97
RNASEH2C | 1.05
COL6A2 | 1.32
LRRC63 | 0.88
NT5C3B | 0.94
TRIM17 | 1.01
C1orf122 | 0.86
ZNF462 | 0.87
MIGA1 | 0.73
OR10AG1 | 0.98
ORAI2 | 1.03
ACSBG1 | 1.03
STK4 | 1.08
LMAN2 | 1
GCNT4 | 1.01
HHIPL1 | 0.9
AMELX | 0.93
CEP104 | 0.77
CROT | 1.05
ARPP19 | 0.97
MAD2L1BP | 1.26
EDC4 | 0.7
KDSR | 1.12
SLC9B2 | 0.9
OR2G6 | 1.03
TNIK | 0.93
CKMT2 | 1.28
TRIM16 | 1.36
MYO18B | 0.97
LLGL1 | 0.83
AP3B1 | 0.78
BPNT1 | 1.19
FPGT | 1.06
TAGLN3 | 1.02
HGD | 0.95
HAO2 | 1.04
GJB2 | 0.74
GALP | 1.19
YIPF3 | 1.3
HSD17B6 | 0.9
NXT2 | 0.92
TMEFF2 | 0.78
GPRIN2 | 0.8
TRIM7 | 0.97
PSG6 | 1.33
PDCD6IP | 0.87
DGKK | 0.79
COQ10B | 0.96
ODF2L | 1
NISCH | 0.92
ESRP2 | 1.07
OR5H14 | 0.78
LRRC2 | 0.98
MAP3K15 | 1.07
RETREG3 | 1.08
CCN4 | 0.91
EED | 0.88
SUCLA2 | 1.2
KMT5C | 0.89

A portion taken from the entries so far:
gene | CDH1-null / parental viability ratio
OR2G6 | 1.03
TNIK | 0.93
CKMT2 | 1.28
TRIM16 | 1.36
MYO18B | 0.97
LLGL1 | 0.83
AP3B1 | 0.78
BPNT1 | 1.19
FPGT | 1.06
